Source: the supplement of paper PMC10032668
The other results are listed elsewhere or left out. Only hits are listed; about a third recur on repeated control peptides.

By UniProt entry, the sequences of proteins in these tests, tags left out.
EIF3K, Q9UBQ5, UniProt Q9UBQ5, whole entry: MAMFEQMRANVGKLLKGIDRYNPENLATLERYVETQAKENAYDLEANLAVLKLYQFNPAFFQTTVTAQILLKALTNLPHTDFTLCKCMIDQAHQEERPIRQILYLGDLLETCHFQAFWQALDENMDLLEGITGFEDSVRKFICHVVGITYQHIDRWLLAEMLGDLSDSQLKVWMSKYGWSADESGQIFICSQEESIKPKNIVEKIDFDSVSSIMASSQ
HSP90B1, P14625, UniProt P14625, whole entry: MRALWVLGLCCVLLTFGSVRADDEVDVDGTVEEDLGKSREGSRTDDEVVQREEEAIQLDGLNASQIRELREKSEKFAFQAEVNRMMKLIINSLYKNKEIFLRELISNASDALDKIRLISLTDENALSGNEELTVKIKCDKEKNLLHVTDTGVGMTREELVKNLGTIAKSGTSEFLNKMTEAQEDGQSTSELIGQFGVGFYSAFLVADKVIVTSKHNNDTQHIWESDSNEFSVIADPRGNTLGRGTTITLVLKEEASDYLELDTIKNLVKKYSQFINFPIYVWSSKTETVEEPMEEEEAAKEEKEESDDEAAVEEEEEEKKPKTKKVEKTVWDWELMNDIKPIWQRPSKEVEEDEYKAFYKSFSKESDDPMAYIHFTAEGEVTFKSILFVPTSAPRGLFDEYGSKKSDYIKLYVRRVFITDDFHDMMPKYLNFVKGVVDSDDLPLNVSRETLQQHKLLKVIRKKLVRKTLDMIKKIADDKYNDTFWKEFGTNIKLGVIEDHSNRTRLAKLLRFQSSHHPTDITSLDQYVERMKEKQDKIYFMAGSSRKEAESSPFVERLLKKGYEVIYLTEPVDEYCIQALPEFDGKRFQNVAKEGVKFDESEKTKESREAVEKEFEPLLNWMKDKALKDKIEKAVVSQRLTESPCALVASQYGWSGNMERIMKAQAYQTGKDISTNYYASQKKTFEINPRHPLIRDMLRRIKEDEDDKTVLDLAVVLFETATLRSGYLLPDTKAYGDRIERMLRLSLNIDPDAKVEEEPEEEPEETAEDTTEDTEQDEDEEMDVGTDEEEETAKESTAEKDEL
PFN2, P35080, UniProt P35080, whole entry: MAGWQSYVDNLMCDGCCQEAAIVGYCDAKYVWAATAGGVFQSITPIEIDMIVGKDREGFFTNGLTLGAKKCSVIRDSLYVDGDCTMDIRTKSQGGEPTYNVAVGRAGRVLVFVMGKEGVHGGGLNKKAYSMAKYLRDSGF
CD2AP, Q9Y5K6, UniProt Q9Y5K6, whole entry: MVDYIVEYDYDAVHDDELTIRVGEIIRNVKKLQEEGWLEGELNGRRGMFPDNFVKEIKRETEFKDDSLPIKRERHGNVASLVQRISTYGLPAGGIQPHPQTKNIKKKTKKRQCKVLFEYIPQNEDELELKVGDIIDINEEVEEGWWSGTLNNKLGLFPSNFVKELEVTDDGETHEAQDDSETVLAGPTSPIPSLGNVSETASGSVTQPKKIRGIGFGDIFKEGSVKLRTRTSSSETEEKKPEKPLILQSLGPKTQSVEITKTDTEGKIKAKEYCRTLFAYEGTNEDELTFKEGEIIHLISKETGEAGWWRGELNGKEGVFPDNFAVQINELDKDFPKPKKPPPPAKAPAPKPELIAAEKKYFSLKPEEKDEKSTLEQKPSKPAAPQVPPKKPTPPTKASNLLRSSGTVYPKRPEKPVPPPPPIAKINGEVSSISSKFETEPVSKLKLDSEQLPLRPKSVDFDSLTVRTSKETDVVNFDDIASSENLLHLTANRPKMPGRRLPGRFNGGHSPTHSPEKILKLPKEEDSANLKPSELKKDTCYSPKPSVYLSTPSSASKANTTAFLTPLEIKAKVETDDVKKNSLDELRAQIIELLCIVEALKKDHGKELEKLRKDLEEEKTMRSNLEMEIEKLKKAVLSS
HIST1H1E, P10412, UniProt P10412, whole entry: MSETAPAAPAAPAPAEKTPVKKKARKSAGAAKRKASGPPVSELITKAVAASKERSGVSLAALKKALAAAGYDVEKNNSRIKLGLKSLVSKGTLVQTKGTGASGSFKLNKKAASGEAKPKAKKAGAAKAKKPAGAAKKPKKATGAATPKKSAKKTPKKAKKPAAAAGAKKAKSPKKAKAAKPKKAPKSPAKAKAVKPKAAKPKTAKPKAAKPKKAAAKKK
PARK7, Q99497, UniProt Q99497, whole entry: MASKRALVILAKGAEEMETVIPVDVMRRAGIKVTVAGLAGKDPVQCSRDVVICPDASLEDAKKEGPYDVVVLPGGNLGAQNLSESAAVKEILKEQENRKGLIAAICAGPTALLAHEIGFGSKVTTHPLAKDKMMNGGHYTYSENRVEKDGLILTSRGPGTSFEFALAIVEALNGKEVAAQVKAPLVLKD

Columns and labels:
Assay in all cases: PRISMA enrichment of interactor (LFQ) in peptide spot vs all other peptide spots (log2 fold change); higher = stronger / more specific binding of the interactor to the peptide
ACP1, P24666 = biological target: ACP1, P24666
Protocol: (§1)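 PRISMA: 15-aa overlapping tiles (offset 8 aa) of 60 microproteins, plus SOS1/GLUT1 control peptides, were spot-synthesized on cellulose membranes in triplicate. Membranes were incubated with benzonase-treated HEK293T lysate, and bound proteins were identified by LC-MS/MS with LFQ. Enrichment is the log2 fold change of each protein in one spot versus all other spots. Only interactors passing the significance cutoff are listed.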

CNN3, Q15417 = biological target: CNN3, Q15417
Protocol: as §1

COA7, Q96BR5 = biological target: COA7, Q96BR5
Protocol: as §1

DBR1, Q9UK59 = biological target: DBR1, Q9UK59
Protocol: as §1

EIF3K, Q9UBQ5 = biological target: EIF3K, Q9UBQ5
Protocol: as §1

FBXW11, Q9UKB1 = biological target: FBXW11, Q9UKB1
Protocol: as §1

GCC2, Q8IWJ2 = biological target: GCC2, Q8IWJ2
Protocol: as §1

HMGB3, O15347 = biological target: HMGB3, O15347
Protocol: as §1

HSP90B1, P14625 = biological target: HSP90B1, P14625
Protocol: as §1

LUC7L2, Q9Y383 = biological target: LUC7L2, Q9Y383
Protocol: as §1

MAGEB2, O15479 = biological target: MAGEB2, O15479
Protocol: as §1

MRPL14, Q6P1L8 = biological target: MRPL14, Q6P1L8
Protocol: as §1

MRPL54, Q6P161 = biological target: MRPL54, Q6P161
Protocol: as §1

MRPS34, P82930 = biological target: MRPS34, P82930
Protocol: as §1

MRPS36, P82909 = biological target: MRPS36, P82909
Protocol: as §1

ODF2, Q5BJF6 = biological target: ODF2, Q5BJF6
Protocol: as §1

ORMDL3, Q8N138 = biological target: ORMDL3, Q8N138
Protocol: as §1

PDK3, Q15120 = biological target: PDK3, Q15120
Protocol: as §1

PFN2, P35080 = biological target: PFN2, P35080
Protocol: as §1

PRKCSH, P14314 = biological target: PRKCSH, P14314
Protocol: as §1

CD2AP, Q9Y5K6 = biological target: CD2AP, Q9Y5K6
Protocol: as §1

CHERP, Q8IWX8 = biological target: CHERP, Q8IWX8
Protocol: as §1

CPSF2, Q9P2I0 = biological target: CPSF2, Q9P2I0
Protocol: as §1

FKBP4, Q02790 = biological target: FKBP4, Q02790
Protocol: as §1

GRB2, P62993 = biological target: GRB2, P62993
Protocol: as §1

HIST1H1E, P10412 = biological target: HIST1H1E, P10412
Protocol: as §1

MRPL2, Q5T653 = biological target: MRPL2, Q5T653
Protocol: as §1

PACSIN2, Q9UNF0 = biological target: PACSIN2, Q9UNF0
Protocol: as §1

PARK7, Q99497 = biological target: PARK7, Q99497
Protocol: as §1

PRIM1, P49642 = biological target: PRIM1, P49642
Protocol: as §1

RBM12B, Q8IXT5 = biological target: RBM12B, Q8IXT5
Protocol: as §1

RUSC1, Q9BVN2 = biological target: RUSC1, Q9BVN2
Protocol: as §1

SFSWAP, Q12872 = biological target: SFSWAP, Q12872
Protocol: as §1

SH3GL1, Q99961 = biological target: SH3GL1, Q99961
Protocol: as §1

STIP1, P31948 = biological target: STIP1, P31948
Protocol: as §1

B1: RAB12 (peptide)
chain: TSSCRSSLSAPAAWA
ACP1, P24666
  PRISMA enrichment of interactor (log2): 6.05
CNN3, Q15417
  PRISMA enrichment of interactor (log2): 6.46
COA7, Q96BR5
  PRISMA enrichment of interactor (log2): 4.38
DBR1, Q9UK59
  PRISMA enrichment of interactor (log2): 4.03
EIF3K, Q9UBQ5
  PRISMA enrichment of interactor (log2): 4.34
FBXW11, Q9UKB1
  PRISMA enrichment of interactor (log2): 5.05
GCC2, Q8IWJ2
  PRISMA enrichment of interactor (log2): 4.35
HMGB3, O15347
  PRISMA enrichment of interactor (log2): 6.73
HSP90B1, P14625
  PRISMA enrichment of interactor (log2): 6.04
LUC7L2, Q9Y383
  PRISMA enrichment of interactor (log2): 4.03
MAGEB2, O15479
  PRISMA enrichment of interactor (log2): 6.06
MRPL14, Q6P1L8
  PRISMA enrichment of interactor (log2): 5.94
MRPL54, Q6P161
  PRISMA enrichment of interactor (log2): 4.4
MRPS34, P82930
  PRISMA enrichment of interactor (log2): 7.46
MRPS36, P82909
  PRISMA enrichment of interactor (log2): 3.88
ODF2, Q5BJF6
  PRISMA enrichment of interactor (log2): 5.33
ORMDL3, Q8N138
  PRISMA enrichment of interactor (log2): 4.59
PDK3, Q15120
  PRISMA enrichment of interactor (log2): 5.16
PFN2, P35080
  PRISMA enrichment of interactor (log2): 4.53
PRKCSH, P14314
  PRISMA enrichment of interactor (log2): 7.15

B2: SOS1_WT_1 (peptide)
chain: EVPVPPPVPPRRRP
ACP1, P24666
  PRISMA enrichment of interactor (log2): 4.76
CD2AP, Q9Y5K6
  PRISMA enrichment of interactor (log2): 5.75
CHERP, Q8IWX8
  PRISMA enrichment of interactor (log2): 5.1
CPSF2, Q9P2I0
  PRISMA enrichment of interactor (log2): 7.9
FKBP4, Q02790
  PRISMA enrichment of interactor (log2): 6.24
GRB2, P62993
  PRISMA enrichment of interactor (log2): 7.18
HIST1H1E, P10412
  PRISMA enrichment of interactor (log2): 6.57
MRPL2, Q5T653
  PRISMA enrichment of interactor (log2): 3.57
PACSIN2, Q9UNF0
  PRISMA enrichment of interactor (log2): 6.41
PARK7, Q99497
  PRISMA enrichment of interactor (log2): 5.33
PRIM1, P49642
  PRISMA enrichment of interactor (log2): 4.17
RBM12B, Q8IXT5
  PRISMA enrichment of interactor (log2): 6.54
RUSC1, Q9BVN2
  PRISMA enrichment of interactor (log2): 5.71
SFSWAP, Q12872
  PRISMA enrichment of interactor (log2): 4.37
SH3GL1, Q99961
  PRISMA enrichment of interactor (log2): 5.52
STIP1, P31948
  PRISMA enrichment of interactor (log2): 6.41
